Article PMC3789791
Results are given in words; binding and its absence hold for the method and conditions named. Binding seen in cells or lysates may run through a third protein. Some entries that bind do so weakly or less than the wild type. Tags and fused reporters may be left off the sequences shown.

By UniProt entry, the sequences of proteins in these tests, tags left out. Where a name states a change or a piece, a line headed by the entry shows the natural chain unless it says otherwise. Chains listed by the source or under a name are the forms on record and can include a tag or linker. Residues count along the entry.
UniProt P38111: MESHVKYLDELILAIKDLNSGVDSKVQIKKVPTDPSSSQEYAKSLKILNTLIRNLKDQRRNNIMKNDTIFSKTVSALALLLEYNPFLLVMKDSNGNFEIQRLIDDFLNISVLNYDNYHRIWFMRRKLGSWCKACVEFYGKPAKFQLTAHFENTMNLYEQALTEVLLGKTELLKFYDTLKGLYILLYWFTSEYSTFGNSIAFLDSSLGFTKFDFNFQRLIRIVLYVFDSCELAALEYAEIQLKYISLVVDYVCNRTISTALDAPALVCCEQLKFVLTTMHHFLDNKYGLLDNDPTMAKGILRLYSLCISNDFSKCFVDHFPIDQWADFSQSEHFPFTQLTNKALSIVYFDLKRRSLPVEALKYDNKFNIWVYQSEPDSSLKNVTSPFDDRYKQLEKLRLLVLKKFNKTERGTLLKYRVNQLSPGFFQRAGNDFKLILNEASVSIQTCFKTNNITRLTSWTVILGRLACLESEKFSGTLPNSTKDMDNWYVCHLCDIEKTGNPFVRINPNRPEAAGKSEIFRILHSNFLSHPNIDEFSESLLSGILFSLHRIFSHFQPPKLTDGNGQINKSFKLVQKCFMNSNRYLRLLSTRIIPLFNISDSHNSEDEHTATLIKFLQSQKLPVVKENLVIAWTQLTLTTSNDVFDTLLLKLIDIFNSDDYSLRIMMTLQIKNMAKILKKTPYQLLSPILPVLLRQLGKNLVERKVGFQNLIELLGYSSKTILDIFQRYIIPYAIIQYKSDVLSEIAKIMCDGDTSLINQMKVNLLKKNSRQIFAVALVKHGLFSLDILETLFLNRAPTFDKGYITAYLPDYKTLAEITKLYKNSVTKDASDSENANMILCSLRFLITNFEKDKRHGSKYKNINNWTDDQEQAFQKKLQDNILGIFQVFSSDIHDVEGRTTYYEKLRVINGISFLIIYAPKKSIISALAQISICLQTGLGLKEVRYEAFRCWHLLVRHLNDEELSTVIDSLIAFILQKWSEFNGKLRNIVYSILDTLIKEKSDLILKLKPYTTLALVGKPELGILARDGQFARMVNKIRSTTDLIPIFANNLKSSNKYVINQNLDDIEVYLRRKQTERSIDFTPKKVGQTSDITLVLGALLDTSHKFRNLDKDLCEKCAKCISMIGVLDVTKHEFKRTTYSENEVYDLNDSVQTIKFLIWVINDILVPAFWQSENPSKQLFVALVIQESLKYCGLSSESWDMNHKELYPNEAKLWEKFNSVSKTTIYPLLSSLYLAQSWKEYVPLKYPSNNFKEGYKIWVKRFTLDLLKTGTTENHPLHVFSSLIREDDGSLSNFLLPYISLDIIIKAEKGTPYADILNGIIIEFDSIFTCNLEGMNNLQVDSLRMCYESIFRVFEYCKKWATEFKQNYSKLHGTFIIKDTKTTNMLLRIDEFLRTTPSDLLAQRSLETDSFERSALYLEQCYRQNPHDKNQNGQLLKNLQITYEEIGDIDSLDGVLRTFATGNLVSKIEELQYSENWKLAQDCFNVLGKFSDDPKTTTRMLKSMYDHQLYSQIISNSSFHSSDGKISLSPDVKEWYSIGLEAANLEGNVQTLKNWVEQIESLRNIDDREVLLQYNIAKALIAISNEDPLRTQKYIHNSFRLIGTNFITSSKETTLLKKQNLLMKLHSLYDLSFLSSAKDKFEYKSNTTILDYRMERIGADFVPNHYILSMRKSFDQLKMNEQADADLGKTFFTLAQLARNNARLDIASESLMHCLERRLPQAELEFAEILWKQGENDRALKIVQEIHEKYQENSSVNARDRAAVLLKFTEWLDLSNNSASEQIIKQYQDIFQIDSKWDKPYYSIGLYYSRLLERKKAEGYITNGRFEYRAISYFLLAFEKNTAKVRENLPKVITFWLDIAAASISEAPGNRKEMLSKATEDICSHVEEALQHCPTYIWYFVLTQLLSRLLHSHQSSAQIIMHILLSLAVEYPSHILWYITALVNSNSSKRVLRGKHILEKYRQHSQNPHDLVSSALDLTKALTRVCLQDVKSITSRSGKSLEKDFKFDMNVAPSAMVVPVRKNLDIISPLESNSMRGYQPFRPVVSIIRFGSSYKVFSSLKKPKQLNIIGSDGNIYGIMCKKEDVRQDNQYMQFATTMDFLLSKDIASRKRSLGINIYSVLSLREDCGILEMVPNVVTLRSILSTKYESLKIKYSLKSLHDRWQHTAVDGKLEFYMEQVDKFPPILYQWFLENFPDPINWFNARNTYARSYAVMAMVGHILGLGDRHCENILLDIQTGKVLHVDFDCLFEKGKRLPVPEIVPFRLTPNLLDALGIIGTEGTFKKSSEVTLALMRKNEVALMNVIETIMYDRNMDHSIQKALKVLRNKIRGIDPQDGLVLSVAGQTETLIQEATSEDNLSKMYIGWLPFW
Flag^5-Mec1-Δ1: residues 1-2367 of P38111
Flag^5-Mec1-2369G (P38111, form named): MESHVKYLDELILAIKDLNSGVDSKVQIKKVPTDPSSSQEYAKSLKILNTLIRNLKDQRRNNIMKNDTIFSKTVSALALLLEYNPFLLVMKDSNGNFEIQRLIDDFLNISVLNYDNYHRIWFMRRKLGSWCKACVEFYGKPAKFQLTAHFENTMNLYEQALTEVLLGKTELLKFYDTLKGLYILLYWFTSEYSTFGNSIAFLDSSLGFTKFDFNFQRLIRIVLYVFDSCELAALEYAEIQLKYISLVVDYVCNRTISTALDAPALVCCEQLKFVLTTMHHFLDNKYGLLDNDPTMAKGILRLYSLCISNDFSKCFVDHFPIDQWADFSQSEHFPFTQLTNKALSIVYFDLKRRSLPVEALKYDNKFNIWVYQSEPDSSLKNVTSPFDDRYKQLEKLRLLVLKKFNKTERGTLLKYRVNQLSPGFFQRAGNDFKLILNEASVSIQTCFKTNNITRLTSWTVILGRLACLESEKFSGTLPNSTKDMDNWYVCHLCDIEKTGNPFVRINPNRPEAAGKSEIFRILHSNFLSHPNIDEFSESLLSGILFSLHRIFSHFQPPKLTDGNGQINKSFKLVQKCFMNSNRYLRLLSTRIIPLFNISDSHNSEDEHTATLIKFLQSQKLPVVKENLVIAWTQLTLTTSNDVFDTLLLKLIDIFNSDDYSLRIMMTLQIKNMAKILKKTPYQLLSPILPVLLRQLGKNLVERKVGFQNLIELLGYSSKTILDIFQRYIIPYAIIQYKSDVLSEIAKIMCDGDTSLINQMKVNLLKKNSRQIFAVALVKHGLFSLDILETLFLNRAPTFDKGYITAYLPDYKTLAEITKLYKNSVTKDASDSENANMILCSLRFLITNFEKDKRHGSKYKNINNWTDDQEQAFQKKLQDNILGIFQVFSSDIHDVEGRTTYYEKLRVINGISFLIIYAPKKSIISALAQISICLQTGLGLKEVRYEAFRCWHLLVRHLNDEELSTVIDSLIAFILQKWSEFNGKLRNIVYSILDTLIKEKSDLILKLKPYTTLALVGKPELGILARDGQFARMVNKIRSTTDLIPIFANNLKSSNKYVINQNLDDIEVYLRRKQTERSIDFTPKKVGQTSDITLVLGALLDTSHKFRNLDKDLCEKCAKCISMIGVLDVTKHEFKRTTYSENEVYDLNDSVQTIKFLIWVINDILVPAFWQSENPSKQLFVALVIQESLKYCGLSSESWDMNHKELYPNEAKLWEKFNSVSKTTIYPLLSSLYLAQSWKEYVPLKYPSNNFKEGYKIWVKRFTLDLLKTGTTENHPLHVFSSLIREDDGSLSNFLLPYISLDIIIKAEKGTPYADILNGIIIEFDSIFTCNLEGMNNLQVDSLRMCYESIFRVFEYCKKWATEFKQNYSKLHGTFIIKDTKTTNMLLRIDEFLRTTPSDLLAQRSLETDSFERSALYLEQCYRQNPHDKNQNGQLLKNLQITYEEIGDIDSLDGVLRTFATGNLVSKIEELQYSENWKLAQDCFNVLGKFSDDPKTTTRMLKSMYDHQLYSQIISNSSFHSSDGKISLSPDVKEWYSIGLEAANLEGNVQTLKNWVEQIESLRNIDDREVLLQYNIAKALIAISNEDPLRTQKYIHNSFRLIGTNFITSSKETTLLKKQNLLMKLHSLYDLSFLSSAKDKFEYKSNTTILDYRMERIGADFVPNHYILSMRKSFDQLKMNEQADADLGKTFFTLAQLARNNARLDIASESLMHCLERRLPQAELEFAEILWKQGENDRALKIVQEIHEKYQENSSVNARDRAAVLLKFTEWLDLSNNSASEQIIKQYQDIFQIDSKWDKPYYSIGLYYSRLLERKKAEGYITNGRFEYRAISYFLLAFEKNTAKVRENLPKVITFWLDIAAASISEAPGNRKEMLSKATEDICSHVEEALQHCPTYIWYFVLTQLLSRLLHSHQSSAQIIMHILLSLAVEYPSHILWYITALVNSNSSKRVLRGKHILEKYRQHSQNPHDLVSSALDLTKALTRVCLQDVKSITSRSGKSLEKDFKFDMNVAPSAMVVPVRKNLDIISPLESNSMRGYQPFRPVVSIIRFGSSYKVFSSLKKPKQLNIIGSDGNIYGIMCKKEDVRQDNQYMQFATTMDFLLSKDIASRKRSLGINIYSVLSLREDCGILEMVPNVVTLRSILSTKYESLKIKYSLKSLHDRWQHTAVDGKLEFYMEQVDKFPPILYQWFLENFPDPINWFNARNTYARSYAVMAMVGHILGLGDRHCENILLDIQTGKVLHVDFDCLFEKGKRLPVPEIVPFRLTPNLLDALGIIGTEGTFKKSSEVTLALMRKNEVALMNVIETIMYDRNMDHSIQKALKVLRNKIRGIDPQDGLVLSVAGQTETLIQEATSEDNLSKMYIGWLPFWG

Columns and labels:
Test in all cases: co-IP; anti-Flag M2 magnetic beads on 3 mg yeast extract of strains with a Flag^5-tagged Mec1 derivative and YCplac111-myc^9-Lcd1; IP buffer 50 mM HEPES pH 7.5, 100 mM KCl, 0.1 mM EDTA, 0.2% Tween20, 1.0 mM dithiothreitol, 4°, 2.5 hr; blots with anti-Flag and anti-myc
[1] = biological target: Flag^5-Mec1 (wild-type) (S. cerevisiae) (UniProt P38111)
[2] = biological target: Flag^5-Mec1-2369G (S. cerevisiae) (UniProt P38111)
[3] = biological target: Flag^5-Mec1-W2368A (S. cerevisiae) (UniProt P38111)
[4] = biological target: Flag^5-Mec1-Δ1 (S. cerevisiae) (UniProt P38111)

Measured: binding

B1: myc^9-tagged Lcd1/Ddc2 (protein, UniProt Q04377 1-747)
chain: MRRETVGEFSSDDDDDILLELGTRPPRFTQIPPSSAALQTQIPTTLEVTTTTLNNKQSKNDNQLVNQLNKAQGEASMLRDKINFLNIEREKEKNIQAVKVNELQVKHLQELAKLKQELQKLEDEKKFLQMEARGKSKREVITNVKPPSTTLSTNTNTITPDSSSVAIEAKPQSPQSKKRKISDNLLKKNMVPLNPNRIIPDETSLFLESILLHQIIGADLSTIEILNRLKLDYITEFKFKNFVIAKGAPIGKSIVSLLLRCKKTLTLDRFIDTLLEDIAVLIKEISVHPNESKLAVPFLVALMYQIVQFRPSATHNLALKDCFLFICDLIRIYHHVLKVPIHESNMNLHVEPQIFQYELIDYLIISYSFDLLEGILRVLQSHPKQTYMEFFDENILKSFEFVYKLALTISYKPMVNVIFSAVEVVNIITSIILNMDNSSDLKSLISGSWWRDCITRLYALLEKEIKSGDVYNENVDTTTLHMSKYHDFFGLIRNIGDNELGGLISKLIYTDRLQSVPRVISKEDIGMDSDKFTAPIIGYKMEKWLLKLKDEVLNIFENLLMIYGDDATIVNGEMLIHSSKFLSREQALMIERYVGQDSPNLDLRCHLIEHTLTIIYRLWKDHFKQLREEQIKQVESQLIMSLWRFLVCQTETVTANEREMRDHRHLVDSLHDLTIKDQASYYEDAFEDLPEYIEEELKMQLNKRTGRIMQVKYDEKFQEMARTILESKSFDLTTLEEADSLYISMGL
binds: all assays above
